From EP0393786B1 (SCLAVO S.p.A., priority 1989, dated 1990)

Experiment: general procedure: solution-phase peptide synthesis; DCC/HOBt
Conditions: acetate

Substance | step yield (coupling step) [%] | step yield (late stage modification step) [%]
Z-Lys(Boc)-gAsp(OBu^t)-(R,S)mVal-Tyr(Bu^t)OBu^t | 71 | –
CH₃COOH.H-Arg-Lys-gAsp-(R,S)mVal-Tyr-OH | – | 56
